{"source": "PubChem BioAssay AID1508597 (Cure First, 2020)", "aim": "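Knock-downs altering ovarian cancer cell survival with or without PARP inhibitor rucaparib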 (primary screen)", "system": "human ovarian carcinoma lines grown from tumours: OCI-P5x (papillary serous) and OCI-C5x (clear cell)", "reagent": "siRNA pool against human genes, 1.25 pmol siRNA per well", "timing": "72 h or 96 h, depending on the cell culture", "conditions": "rucaparib 20 µM (about IC30) or vehicle, present until read-out", "detection": "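Luminescent ATP-based viability assay read 72 or 96 h after transfection, depending on culture, given as normalised percent viability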", "scale": "viability, normalised: higher = more viable cells remaining", "rule for the call": "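Active when normalised viability falls below 80 percent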", "calls": "active = viability under 80%; inactive = viability 80% or more", "note": "In all, the deposit lists about 2,100 reagents; below is a part drawn at random. 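Calls flag viability under 80% in either arm, not effects specific to rucaparib; the reference for percent is not stated.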 No sequences are given here. The record does not give: the 100% reference."}
{"gene knocked down": "APEX2", "rucaparib or vehicle": "Rucaparib", "cell line": "OCI-C5x (clear cell)", "technical replicate": "1", "viability, normalised (%)": 42.8, "Outcome": "active"}
{"gene knocked down": "APEX2", "rucaparib or vehicle": "Rucaparib", "cell line": "OCI-C5x (clear cell)", "technical replicate": "2", "viability, normalised (%)": 54, "Outcome": "active"}
{"gene knocked down": "APEX2", "rucaparib or vehicle": "Rucaparib", "cell line": "OCI-C5x (clear cell)", "technical replicate": "3", "viability, normalised (%)": 56.8, "Outcome": "active"}
{"gene knocked down": "APEX2", "rucaparib or vehicle": "Rucaparib", "cell line": "OCI-P5x (serous)", "technical replicate": "1", "viability, normalised (%)": 113, "Outcome": "inactive"}
{"gene knocked down": "APEX2", "rucaparib or vehicle": "Rucaparib", "cell line": "OCI-P5x (serous)", "technical replicate": "2", "viability, normalised (%)": 106, "Outcome": "inactive"}
{"gene knocked down": "APEX2", "rucaparib or vehicle": "Rucaparib", "cell line": "OCI-P5x (serous)", "technical replicate": "3", "viability, normalised (%)": 96.8, "Outcome": "inactive"}
{"gene knocked down": "APEX2", "rucaparib or vehicle": "Vehicle", "cell line": "OCI-C5x (clear cell)", "technical replicate": "1", "viability, normalised (%)": 47.1, "Outcome": "active"}
{"gene knocked down": "APEX2", "rucaparib or vehicle": "Vehicle", "cell line": "OCI-C5x (clear cell)", "technical replicate": "2", "viability, normalised (%)": 38.1, "Outcome": "active"}
{"gene knocked down": "APEX2", "rucaparib or vehicle": "Vehicle", "cell line": "OCI-C5x (clear cell)", "technical replicate": "3", "viability, normalised (%)": 44.8, "Outcome": "active"}
{"gene knocked down": "APEX2", "rucaparib or vehicle": "Vehicle", "cell line": "OCI-P5x (serous)", "technical replicate": "1", "viability, normalised (%)": 66.4, "Outcome": "active"}
{"gene knocked down": "APEX2", "rucaparib or vehicle": "Vehicle", "cell line": "OCI-P5x (serous)", "technical replicate": "2", "viability, normalised (%)": 73.3, "Outcome": "active"}
{"gene knocked down": "APEX2", "rucaparib or vehicle": "Vehicle", "cell line": "OCI-P5x (serous)", "technical replicate": "3", "viability, normalised (%)": 74, "Outcome": "active"}
{"gene knocked down": "PRKCG", "rucaparib or vehicle": "Rucaparib", "cell line": "OCI-C5x (clear cell)", "technical replicate": "1", "viability, normalised (%)": 40.9, "Outcome": "active"}
{"gene knocked down": "PRKCG", "rucaparib or vehicle": "Rucaparib", "cell line": "OCI-C5x (clear cell)", "technical replicate": "2", "viability, normalised (%)": 60, "Outcome": "active"}
{"gene knocked down": "PRKCG", "rucaparib or vehicle": "Rucaparib", "cell line": "OCI-C5x (clear cell)", "technical replicate": "3", "viability, normalised (%)": 84.3, "Outcome": "inactive"}
{"gene knocked down": "PRKCG", "rucaparib or vehicle": "Rucaparib", "cell line": "OCI-P5x (serous)", "technical replicate": "1", "viability, normalised (%)": 87.2, "Outcome": "inactive"}
{"gene knocked down": "PRKCG", "rucaparib or vehicle": "Rucaparib", "cell line": "OCI-P5x (serous)", "technical replicate": "2", "viability, normalised (%)": 99.8, "Outcome": "inactive"}
{"gene knocked down": "PRKCG", "rucaparib or vehicle": "Rucaparib", "cell line": "OCI-P5x (serous)", "technical replicate": "3", "viability, normalised (%)": 89.2, "Outcome": "inactive"}
{"gene knocked down": "PRKCG", "rucaparib or vehicle": "Vehicle", "cell line": "OCI-C5x (clear cell)", "technical replicate": "1", "viability, normalised (%)": 64.5, "Outcome": "active"}
{"gene knocked down": "PRKCG", "rucaparib or vehicle": "Vehicle", "cell line": "OCI-C5x (clear cell)", "technical replicate": "2", "viability, normalised (%)": 88, "Outcome": "inactive"}
{"gene knocked down": "PRKCG", "rucaparib or vehicle": "Vehicle", "cell line": "OCI-C5x (clear cell)", "technical replicate": "3", "viability, normalised (%)": 62.6, "Outcome": "active"}
{"gene knocked down": "PRKCG", "rucaparib or vehicle": "Vehicle", "cell line": "OCI-P5x (serous)", "technical replicate": "1", "viability, normalised (%)": 79.6, "Outcome": "active"}
{"gene knocked down": "PRKCG", "rucaparib or vehicle": "Vehicle", "cell line": "OCI-P5x (serous)", "technical replicate": "2", "viability, normalised (%)": 82.7, "Outcome": "inactive"}
{"gene knocked down": "PRKCG", "rucaparib or vehicle": "Vehicle", "cell line": "OCI-P5x (serous)", "technical replicate": "3", "viability, normalised (%)": 86.2, "Outcome": "inactive"}
{"gene knocked down": "CHD8", "rucaparib or vehicle": "Rucaparib", "cell line": "OCI-C5x (clear cell)", "technical replicate": "1", "viability, normalised (%)": 68.2, "Outcome": "active"}
{"gene knocked down": "CHD8", "rucaparib or vehicle": "Rucaparib", "cell line": "OCI-C5x (clear cell)", "technical replicate": "2", "viability, normalised (%)": 58.8, "Outcome": "active"}
{"gene knocked down": "CHD8", "rucaparib or vehicle": "Rucaparib", "cell line": "OCI-C5x (clear cell)", "technical replicate": "3", "viability, normalised (%)": 63.8, "Outcome": "active"}
{"gene knocked down": "CHD8", "rucaparib or vehicle": "Rucaparib", "cell line": "OCI-P5x (serous)", "technical replicate": "1", "viability, normalised (%)": 87.7, "Outcome": "inactive"}
{"gene knocked down": "CHD8", "rucaparib or vehicle": "Rucaparib", "cell line": "OCI-P5x (serous)", "technical replicate": "2", "viability, normalised (%)": 77.9, "Outcome": "active"}
{"gene knocked down": "CHD8", "rucaparib or vehicle": "Rucaparib", "cell line": "OCI-P5x (serous)", "technical replicate": "3", "viability, normalised (%)": 75.4, "Outcome": "active"}
{"gene knocked down": "CHD8", "rucaparib or vehicle": "Vehicle", "cell line": "OCI-C5x (clear cell)", "technical replicate": "1", "viability, normalised (%)": 43, "Outcome": "active"}
{"gene knocked down": "CHD8", "rucaparib or vehicle": "Vehicle", "cell line": "OCI-C5x (clear cell)", "technical replicate": "2", "viability, normalised (%)": 44.8, "Outcome": "active"}
{"gene knocked down": "CHD8", "rucaparib or vehicle": "Vehicle", "cell line": "OCI-C5x (clear cell)", "technical replicate": "3", "viability, normalised (%)": 60.1, "Outcome": "active"}
{"gene knocked down": "CHD8", "rucaparib or vehicle": "Vehicle", "cell line": "OCI-P5x (serous)", "technical replicate": "1", "viability, normalised (%)": 80.4, "Outcome": "inactive"}
{"gene knocked down": "CHD8", "rucaparib or vehicle": "Vehicle", "cell line": "OCI-P5x (serous)", "technical replicate": "2", "viability, normalised (%)": 88, "Outcome": "inactive"}
{"gene knocked down": "CHD8", "rucaparib or vehicle": "Vehicle", "cell line": "OCI-P5x (serous)", "technical replicate": "3", "viability, normalised (%)": 60.5, "Outcome": "active"}

3 entries already listed, sorted by “viability, normalised (%)”, low to high:
{"gene knocked down": "CHD8", "rucaparib or vehicle": "Vehicle", "cell line": "OCI-C5x (clear cell)", "technical replicate": "3", "viability, normalised (%)": 60.1, "Outcome": "active"}
{"gene knocked down": "CHD8", "rucaparib or vehicle": "Vehicle", "cell line": "OCI-P5x (serous)", "technical replicate": "1", "viability, normalised (%)": 80.4, "Outcome": "inactive"}
{"gene knocked down": "CHD8", "rucaparib or vehicle": "Vehicle", "cell line": "OCI-P5x (serous)", "technical replicate": "2", "viability, normalised (%)": 88, "Outcome": "inactive"}
